Measured values published in patent publication US5482934A, “Pregna-1,4-diene3,20-dione-16-17-acetal-21 esters, process for their preparation, composition, and methods for the treatment of inflammatory conditions” (priority 1994, dated 1996).

Test system: cotton-pellet-induced granuloma
Assay: cotton pellet granuloma bioassay, topical anti-inflammatory activity (inhibitory effect on granuloma weight)
Assay type: in vivo, Male Wistar rats
Conditions: budesonide = 1
Text: The glucocorticoid activity of these products was studied in comparison with that of budesonide: pregna-1,4-diene-3,20-dione, 16,17-butylidenebis(oxy)-11-21-dihydroxy-(11β,16α). The pharmacologic action on the acetonides triamcinolone acetonide and flunisolide was also studied.
Anti-inflammatory effects of the compounds were screened in the cotton pellet granuloma bioassay for identification of lead compounds. (Meier et al., Eperimentia 6, 469, 1950). Male Wistar rats were used, ranging in weight between 90 and 120 g, at the rate of 10 animals per group, previously identified and quartered in individual cages. The animals had free access to feed and drink throughout the trial.
Cotton pellets weighing exactly 20 mg were prepared, sterilized for 2 hr. at 160° C. soaked with 50 λl solution of the product or with the solvent before implantation, and subsequently the solvent is evaporated before application. The implantation was performed subcutaneously in the axillary zone of the animals previously anesthetized with ether (right axilla pellet with product, left axilla pellet with solvent). Animals in which pellets without product were implanted were used as controls.
The drug was applied in alcohol solution at 4 dosage levels. Once the pellets were implanted, the animals were kept under normal rearing conditions, isolated for 7 days and then weighed, after which they were sacrificed by exsanguination.
The topical activity was determined by the inhibitory effect on the weight of the cotton-pellet-induced granuloma; the granulomas were extracted and weighed (pellet and connective tissue surrounding them, dried for 24 hr in a 60° oven, and weighed).
Anti-inflammatory ED50 (topical effect), thymus inhibition ED50 (systemic effect), therapeutic index (systemic ED50 /topical ED50), and the therapeutic index relative to budesonide (=1).
All of the ED50 values were calculated from the linear regression lines with the confidence limits.

First: CC1(C)O[C@@H]2C[C@H]3[C@@H]4CCC5=CC(=O)C=C[C@]5(C)[C@@]4(F)[C@@H](O)C[C@]3(C)[C@]2(C(=O)CO)O1 (stereo in doubt) [TRIAMCINOLONE ACETONIDE, triamcinolone acetonide, reference compound]
Second: CC1(C)O[C@@H]2C[C@H]3[C@@H]4C[C@H](F)C5=CC(=O)C=C[C@]5(C)[C@H]4[C@@H](O)C[C@]3(C)[C@]2(C(=O)CO)O1 [FLUNISOLIDE, flunisolide, reference compound]
The “Therapeutic index with respect to budesonide” value (shortened to “Therapeutic index”) of the first is higher: 0.6 for the first, 0.4 for the second.

Going from `CCCC1O[C@@H]2C[C@H]3[C@@H]4CCC5=CC(=O)C=C[C@]5(C)[C@H]4[C@@H](O)C[C@]3(C)[C@]2(C(=O)CO)O1` (stereo partly drawn) [BUDESONIDE, pregna-1,4-diene-3,20-dione, 16,17-butylidenebis(oxy)-11-21-dihydroxy-(11β,16α), reference compound] to `CCCCC1OC2CC3C4CCC5=CC(=O)C=CC5(C)C4C(O)CC3(C)C2(C(=O)COC(C)=O)O1` [Compound 10, (22R,S)-of pregna 1,4-diene-3,20-dione-21-(acetyloxy)-11-hydroxy-16,17-(pentylidene) bis(oxy)-(11β,16α)], the “Therapeutic index” value rises from 1 to 8.9.

Compared with `CC(C)C(=O)OCC(=O)C12OC(C3CCCCC3)OC1CC1C3CCC4=CC(=O)C=CC4(C)C3C(O)CC12C` [Compound 7, (22R,S)-pregna 1,4-diene-3,20-dione, 16,17-[[cyclohexylmethylidyne]bis (oxy)]-11-hydroxy-21-(2-methyl-1-oxo-propoxy)-(11β,16α)], `CC(C)C(=O)OCC(=O)C12OC(C3CCCCC3)OC1CC1C3CC(F)C4=CC(=O)C=CC4(C)C3(F)C(O)CC12C` [Compound 13, (22R,S)-pregna 1,4-diene-3,20-dione-16,17-(cyclohyxylmethylidine)-bis-(oxy)-6,9-difluoro-11-hydroxy-21-(methyl-1-oxo-propoxy)-(11β,16α)] is lower in “Therapeutic index” value: 26 for the first, 11 for the second.

Going from `CC(C)C(=O)OCC(=O)C12OC(C3CCCCC3)OC1CC1C3CCC4=CC(=O)C=CC4(C)C3C(O)CC12C` [Compound 8, (22,S)-pregna 1,4-diene-3,20-dione 16,17-[[cyclohexyl-methylidyne]bis (oxy)]-11-hydroxy-21-(2-methyl-1-oxo-propoxy)-(11β,16α)] to `CC(C)C(=O)OCC(=O)C12OC(C3CCCCC3)OC1CC1C3CC(F)C4=CC(=O)C=CC4(C)C3(F)C(O)CC12C` [Compound 14, (22S)-pregna-1,4-diene-3,20-dione-16,17-(cyclohexylmethylidine)-bis-(oxy)-6,9-difluoro-11-hydroxy-21-(s-methyl-1-oxo-propoxy)-(11β,16α)], the “Therapeutic index” value falls from 27.2 to 15.

Compared with `CC(C)C(=O)OCC(=O)C12OC(C3CCCCC3)OC1CC1C3CCC4=CC(=O)C=CC4(C)C3C(O)CC12C` (stereo not drawn) [Compound 9], `CC(C)C(=O)OCC(=O)C12OC(C3CCCCC3)OC1CC1C3CC(F)C4=CC(=O)C=CC4(C)C3(F)C(O)CC12C` (stereo not drawn) [Compound 15] is lower in “Therapeutic index” value: 24.5 for the first, 9.9 for the second.

For `CCCCC1OC2CC3C4CCC5=CC(=O)C=CC5(C)C4C(O)CC3(C)C2(C(=O)COC(C)=O)O1` [Compound 11, (22S)-pregna 1,4-diene-3,20-dione-21-(acetyloxy)-11-hydroxy-16,17-(pentylidene)-bis-(oxy)-(11β,16α)], the “Therapeutic index” value was 11.8.
For `CCCCC1OC2CC3C4CCC5=CC(=O)C=CC5(C)C4C(O)CC3(C)C2(C(=O)COC(C)=O)O1` (stereo not drawn) [Compound 12], the “Therapeutic index” value was 7.2.
